Laboratory results from article PMC4743010.
Changes are numbered by the printed parent chain. Results are given in words; binding and its absence hold for the method and conditions named. Binding seen in cells or lysates may run through a third protein. Some binding calls cover weakened binding; strength is not graded here. For part of these data: Where a sequence is shown, tags or fusion partners need not be part of it.

The chains behind the UniProt entries cited, without tags or fusion partners.
UniProt Q96Q15: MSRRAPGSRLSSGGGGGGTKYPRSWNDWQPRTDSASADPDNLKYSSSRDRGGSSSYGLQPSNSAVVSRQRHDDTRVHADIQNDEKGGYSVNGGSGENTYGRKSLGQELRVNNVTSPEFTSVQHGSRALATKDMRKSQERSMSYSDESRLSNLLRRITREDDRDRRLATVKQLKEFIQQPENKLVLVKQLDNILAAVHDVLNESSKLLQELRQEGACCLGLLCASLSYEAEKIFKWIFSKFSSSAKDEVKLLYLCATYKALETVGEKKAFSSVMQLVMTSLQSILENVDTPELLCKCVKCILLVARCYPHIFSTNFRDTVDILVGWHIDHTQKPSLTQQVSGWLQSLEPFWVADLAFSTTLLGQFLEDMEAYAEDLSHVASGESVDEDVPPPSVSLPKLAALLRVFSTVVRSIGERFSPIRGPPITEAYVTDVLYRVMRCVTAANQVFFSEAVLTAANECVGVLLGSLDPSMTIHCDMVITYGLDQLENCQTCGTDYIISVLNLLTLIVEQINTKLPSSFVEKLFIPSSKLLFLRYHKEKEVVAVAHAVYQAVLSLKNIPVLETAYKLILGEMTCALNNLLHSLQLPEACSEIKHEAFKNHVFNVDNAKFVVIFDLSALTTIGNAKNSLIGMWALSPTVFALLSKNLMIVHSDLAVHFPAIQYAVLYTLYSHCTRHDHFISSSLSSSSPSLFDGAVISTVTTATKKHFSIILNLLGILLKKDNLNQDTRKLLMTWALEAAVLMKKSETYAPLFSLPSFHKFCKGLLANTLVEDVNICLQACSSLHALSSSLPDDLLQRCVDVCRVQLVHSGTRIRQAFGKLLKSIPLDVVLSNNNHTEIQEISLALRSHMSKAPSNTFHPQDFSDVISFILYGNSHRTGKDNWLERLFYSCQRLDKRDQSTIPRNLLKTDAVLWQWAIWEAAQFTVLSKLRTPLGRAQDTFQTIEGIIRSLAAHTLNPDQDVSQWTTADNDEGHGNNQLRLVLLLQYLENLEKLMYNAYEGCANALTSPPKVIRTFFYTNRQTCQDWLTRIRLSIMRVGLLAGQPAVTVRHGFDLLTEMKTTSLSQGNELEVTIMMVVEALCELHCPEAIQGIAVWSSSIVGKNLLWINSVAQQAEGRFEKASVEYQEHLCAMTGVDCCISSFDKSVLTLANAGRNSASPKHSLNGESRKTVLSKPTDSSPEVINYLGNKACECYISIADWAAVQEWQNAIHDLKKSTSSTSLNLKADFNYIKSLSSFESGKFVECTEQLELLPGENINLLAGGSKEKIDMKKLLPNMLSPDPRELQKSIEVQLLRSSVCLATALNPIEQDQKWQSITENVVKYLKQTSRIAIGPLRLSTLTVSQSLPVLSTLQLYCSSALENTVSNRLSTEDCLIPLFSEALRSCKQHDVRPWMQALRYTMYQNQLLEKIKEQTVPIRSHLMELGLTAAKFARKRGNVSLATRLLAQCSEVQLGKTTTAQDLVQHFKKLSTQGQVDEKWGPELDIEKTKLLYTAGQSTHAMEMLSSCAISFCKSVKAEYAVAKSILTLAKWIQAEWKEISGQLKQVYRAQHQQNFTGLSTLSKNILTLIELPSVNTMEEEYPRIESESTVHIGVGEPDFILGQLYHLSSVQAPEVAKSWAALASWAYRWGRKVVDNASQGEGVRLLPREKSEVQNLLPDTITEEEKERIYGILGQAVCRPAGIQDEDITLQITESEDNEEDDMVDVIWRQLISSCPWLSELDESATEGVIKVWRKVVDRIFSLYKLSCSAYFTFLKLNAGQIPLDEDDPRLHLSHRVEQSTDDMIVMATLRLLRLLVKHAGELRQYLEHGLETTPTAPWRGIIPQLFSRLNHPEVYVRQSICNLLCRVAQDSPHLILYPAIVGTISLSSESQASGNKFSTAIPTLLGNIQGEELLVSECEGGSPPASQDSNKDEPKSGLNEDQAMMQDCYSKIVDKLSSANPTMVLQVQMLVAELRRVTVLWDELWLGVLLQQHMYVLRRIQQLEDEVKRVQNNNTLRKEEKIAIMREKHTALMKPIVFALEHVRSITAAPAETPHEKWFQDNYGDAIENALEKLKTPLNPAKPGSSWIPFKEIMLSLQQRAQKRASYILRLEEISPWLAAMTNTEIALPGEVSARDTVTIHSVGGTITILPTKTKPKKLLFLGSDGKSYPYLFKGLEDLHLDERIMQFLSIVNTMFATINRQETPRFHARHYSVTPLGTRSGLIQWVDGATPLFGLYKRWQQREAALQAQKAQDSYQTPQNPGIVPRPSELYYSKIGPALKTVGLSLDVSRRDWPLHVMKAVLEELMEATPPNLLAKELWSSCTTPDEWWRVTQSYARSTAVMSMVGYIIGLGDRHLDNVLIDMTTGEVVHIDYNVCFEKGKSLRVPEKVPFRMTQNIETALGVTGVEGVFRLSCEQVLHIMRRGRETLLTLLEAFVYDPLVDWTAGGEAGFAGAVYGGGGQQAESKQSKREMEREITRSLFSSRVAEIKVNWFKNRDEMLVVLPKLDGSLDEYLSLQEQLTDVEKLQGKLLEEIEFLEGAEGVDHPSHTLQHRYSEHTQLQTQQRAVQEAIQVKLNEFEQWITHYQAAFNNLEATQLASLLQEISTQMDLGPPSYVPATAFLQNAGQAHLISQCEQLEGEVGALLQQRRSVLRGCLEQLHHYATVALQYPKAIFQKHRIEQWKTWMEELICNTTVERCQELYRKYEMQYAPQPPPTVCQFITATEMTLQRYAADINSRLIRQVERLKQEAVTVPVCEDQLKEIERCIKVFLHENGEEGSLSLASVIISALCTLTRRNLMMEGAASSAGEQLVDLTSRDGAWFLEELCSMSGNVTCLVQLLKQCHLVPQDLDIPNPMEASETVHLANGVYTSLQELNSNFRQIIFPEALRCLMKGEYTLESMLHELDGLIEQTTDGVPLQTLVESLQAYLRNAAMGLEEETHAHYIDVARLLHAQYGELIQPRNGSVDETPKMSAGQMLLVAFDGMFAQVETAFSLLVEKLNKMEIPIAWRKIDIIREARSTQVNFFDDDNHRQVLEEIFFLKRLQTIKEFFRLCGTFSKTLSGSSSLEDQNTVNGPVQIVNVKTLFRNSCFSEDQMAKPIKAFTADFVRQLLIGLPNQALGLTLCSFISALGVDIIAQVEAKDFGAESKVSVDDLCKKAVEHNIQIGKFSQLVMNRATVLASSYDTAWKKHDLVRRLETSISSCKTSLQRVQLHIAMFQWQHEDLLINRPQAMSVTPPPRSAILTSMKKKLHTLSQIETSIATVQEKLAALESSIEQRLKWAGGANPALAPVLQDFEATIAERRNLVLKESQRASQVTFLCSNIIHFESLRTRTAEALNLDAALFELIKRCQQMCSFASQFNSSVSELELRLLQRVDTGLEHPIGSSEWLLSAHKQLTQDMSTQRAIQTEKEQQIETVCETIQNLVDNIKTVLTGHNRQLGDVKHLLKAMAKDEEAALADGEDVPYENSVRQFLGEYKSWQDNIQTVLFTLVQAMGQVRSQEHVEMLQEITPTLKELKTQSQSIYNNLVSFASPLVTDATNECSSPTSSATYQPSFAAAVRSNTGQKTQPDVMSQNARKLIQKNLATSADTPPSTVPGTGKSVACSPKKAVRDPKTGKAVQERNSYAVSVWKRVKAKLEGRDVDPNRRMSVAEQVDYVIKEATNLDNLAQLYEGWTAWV

Key:
[1] = target: T1, T7-DHX34 full-length (human) (UniProt Q14147); test: co-IP; T7-DHX34 constructs expressed in HEK293T (with or without shRNA depletion of endogenous DHX34); lysate with RNase A; anti-T7 agarose; blot for endogenous SMG1
T1 sequence: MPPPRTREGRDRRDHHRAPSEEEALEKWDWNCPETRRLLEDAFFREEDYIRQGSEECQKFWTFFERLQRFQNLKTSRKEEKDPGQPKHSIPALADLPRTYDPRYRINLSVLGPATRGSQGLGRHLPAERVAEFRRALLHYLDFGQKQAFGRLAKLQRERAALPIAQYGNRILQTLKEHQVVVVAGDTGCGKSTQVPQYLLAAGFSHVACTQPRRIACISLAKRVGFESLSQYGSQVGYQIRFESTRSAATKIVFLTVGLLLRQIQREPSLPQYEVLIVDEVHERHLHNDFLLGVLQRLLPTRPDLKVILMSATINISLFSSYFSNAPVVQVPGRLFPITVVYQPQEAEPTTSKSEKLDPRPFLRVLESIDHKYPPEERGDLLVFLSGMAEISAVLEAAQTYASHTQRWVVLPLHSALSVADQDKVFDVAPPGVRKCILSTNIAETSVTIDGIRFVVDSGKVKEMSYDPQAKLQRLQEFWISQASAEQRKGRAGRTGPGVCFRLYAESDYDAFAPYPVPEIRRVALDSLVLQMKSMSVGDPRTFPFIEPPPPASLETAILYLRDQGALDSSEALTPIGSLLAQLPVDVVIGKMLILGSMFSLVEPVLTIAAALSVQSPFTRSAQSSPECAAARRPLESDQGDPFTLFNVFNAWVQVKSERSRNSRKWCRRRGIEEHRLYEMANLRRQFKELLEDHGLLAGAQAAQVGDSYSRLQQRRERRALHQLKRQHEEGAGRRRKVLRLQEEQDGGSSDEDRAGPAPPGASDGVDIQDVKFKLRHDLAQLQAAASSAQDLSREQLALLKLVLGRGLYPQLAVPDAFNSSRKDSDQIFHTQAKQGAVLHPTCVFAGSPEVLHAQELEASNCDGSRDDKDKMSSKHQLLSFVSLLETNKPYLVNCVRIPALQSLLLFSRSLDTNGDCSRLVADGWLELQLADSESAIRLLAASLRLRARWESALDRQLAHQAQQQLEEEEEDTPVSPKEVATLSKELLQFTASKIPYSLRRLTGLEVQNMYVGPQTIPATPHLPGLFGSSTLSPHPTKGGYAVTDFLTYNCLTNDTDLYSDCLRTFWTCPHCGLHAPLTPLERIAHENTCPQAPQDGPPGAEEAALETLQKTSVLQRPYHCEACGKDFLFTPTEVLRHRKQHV

[2] = target: T2, 3XFLAG-UPF1 C126S (pCDNA3-3XFLAG-UPF1 C126S mutant) (UniProt Q92900); test: co-IP; sequential: 3XFLAG-UPF1 (wild-type or C126S) with T7-DHX34 or T7-YFP in HEK293T; anti-FLAG IP, FLAG peptide elution, then anti-T7 agarose IP; blot for endogenous SMG1
T2 sequence: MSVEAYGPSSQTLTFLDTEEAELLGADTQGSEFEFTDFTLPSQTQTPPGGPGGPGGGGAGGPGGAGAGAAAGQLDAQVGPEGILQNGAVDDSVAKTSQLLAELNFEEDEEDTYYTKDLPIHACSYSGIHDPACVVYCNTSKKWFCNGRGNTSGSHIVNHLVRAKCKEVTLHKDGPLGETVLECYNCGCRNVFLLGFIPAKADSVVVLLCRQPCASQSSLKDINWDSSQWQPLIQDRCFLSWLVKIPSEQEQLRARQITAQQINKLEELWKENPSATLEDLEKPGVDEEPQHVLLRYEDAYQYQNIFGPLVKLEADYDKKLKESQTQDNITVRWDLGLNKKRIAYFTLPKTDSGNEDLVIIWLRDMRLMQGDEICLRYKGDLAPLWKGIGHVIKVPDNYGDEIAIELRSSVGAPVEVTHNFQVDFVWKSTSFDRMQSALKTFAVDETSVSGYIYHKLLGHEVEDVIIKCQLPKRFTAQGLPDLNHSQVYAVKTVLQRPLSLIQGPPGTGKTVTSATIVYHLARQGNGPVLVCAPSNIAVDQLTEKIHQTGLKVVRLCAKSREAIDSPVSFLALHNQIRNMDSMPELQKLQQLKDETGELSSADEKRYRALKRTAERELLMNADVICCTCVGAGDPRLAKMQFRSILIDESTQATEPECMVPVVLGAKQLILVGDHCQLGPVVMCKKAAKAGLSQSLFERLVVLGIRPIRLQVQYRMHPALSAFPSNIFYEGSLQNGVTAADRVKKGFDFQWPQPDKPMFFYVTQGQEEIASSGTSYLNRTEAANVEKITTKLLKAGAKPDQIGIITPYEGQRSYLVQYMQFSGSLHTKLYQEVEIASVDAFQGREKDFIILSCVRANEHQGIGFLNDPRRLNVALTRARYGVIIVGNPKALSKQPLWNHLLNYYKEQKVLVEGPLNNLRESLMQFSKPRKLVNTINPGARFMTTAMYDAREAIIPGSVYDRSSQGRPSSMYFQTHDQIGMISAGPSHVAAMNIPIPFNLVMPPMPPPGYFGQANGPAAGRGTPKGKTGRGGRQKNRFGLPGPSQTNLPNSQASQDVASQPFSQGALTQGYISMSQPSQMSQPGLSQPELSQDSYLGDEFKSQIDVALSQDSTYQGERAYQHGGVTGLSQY

[3] = target: T3, 3XFLAG-UPF1 wild-type (pCDNA3-3XFLAG-UPF1) (UniProt Q92900); test: as above
T3 sequence: T2 sequence with S126C

[4] = target: T1, T7-DHX34 full-length (human); test: as above
[5] = target: FLAG-SMG1 (pCMV6-SMG1-MYC-FLAG) (UniProt Q96Q15); test: co-IP; sequential: FLAG-SMG1, MYC-UPF1 and T7-DHX34 co-expressed in HEK293T; anti-FLAG IP, FLAG peptide elution, then anti-T7 agarose IP
[6] = target: T1, T7-DHX34 full-length (human); test: as above

Measured: binding

endogenous SMG1 (from UniProt Q96Q15 1-3661) (enzyme)
binds: [1] | [2] | [3] | [4]

B1: MYC-UPF1 (enzyme, UniProt Q92900 1-1129)
chain: T2 sequence with S126C
binds: [5] | [6]
